Laboratory results as given in the supplement of paper PMC10338343.
± gives the standard deviation. This is a selection; strong and weak results do not stand in their true shares. Many of these values have a large error. The list shows a part of the results.

How the values were obtained:
[1] = system: MILI (PIWIL2) piRISC loaded with L1MC piRNA (26 nt); assay: pre-steady-state target cleavage rate (min^-1); higher = faster piRNA-guided slicing of the target; details: guide: L1MC piRNA 5'p-UAACUAAAUACUAUGCAAGCUGUAGG
Procedure, shortened: (§1)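 The pre-steady-state cleavage rate was obtained by Cleave-'n-Seq with a burst-and-steady-state fit. A transcribed, DNA-blocked target RNA library (0.1 nM) was mixed with 1 nM active affinity-purified piRISC carrying one synthetic guide, with or without 500 nM GTSF1 partner protein, in HEPES–potassium acetate buffer at 33 °C for 0–8 or 0–960 min. Uncleaved targets were sequenced and normalised to depth and to weakly complementary targets, with three trials pooled and k3 capped at 0.0001 min^-1.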

[2] = system: EfPiwi piRISC loaded with L1MC piRNA (26 nt); assay: pre-steady-state target cleavage rate (min^-1); guide: L1MC piRNA 5'p-UAACUAAAUACUAUGCAAGCUGUAGG; MIWI and MILI are mouse PIWI proteins and EfPiwi is from a freshwater sponge; tags in brackets are library labels; higher = faster piRNA-guided slicing of the target
Procedure, shortened: as §1

[3] = auxiliary factor: none (no GTSF1)
[4] = auxiliary factor: 500 nM Ephydatia muelleri Gtsf1
[5] = auxiliary factor: none (no Gtsf1)
[6] = auxiliary factor: 500 nM mouse GTSF1

Sequence | pre-steady-state target cleavage rate [1, 3] | pre-steady-state target cleavage rate [2, 4] | pre-steady-state target cleavage rate [2, 5] | pre-steady-state target cleavage rate [1, 6]
UCCUGCUACACCUUGCAUAGUAUAUAGUUA | 0.00278 ± 0.0042 | 0.00204 ± 0.0026 |  | 
UCCUGGUACAGCUUGCUUAGUAUUUAGAUA | 0.00152 ± 0.0056 |  | 0.000634 ± 0.013 | 
UCCUGGAACUGCUUGCAUAGAAUUUAGUUA | 0.00212 ± 0.0032 | 0.00158 ± 0.0031 |  | 
UCCUGGAACAGCUUGCUUAGUAUUUAGUAA | 0.00178 ± 0.0048 | 0.00393 ± 0.0022 |  | 
UCCUCCUACAGCUUGCAUAGUAUAUAGUAA | 0.0021 ± 0.003 |  | 0.000383 ± 0.013 | 
UCCUGCUACAGCUUGCAUAGUAUUAAGUAA | 0.00125 ± 0.0055 |  | 0.000545 ± 0.015 | 
UCCUGGAUGUCGAUGCAUACUAUUUACUUA | 0.000158 ± 0.029 | 0.000201 ± 0.014 |  | 
UCCUGGAUGUCCUUGCAUAGUAUUUAGUCA | 0.0025 ± 0.0034 | 0.00415 ± 0.004 |  | 
UCCUGGAUCAGCUUGCAUAGUAUUUACUAA | 0.00101 ± 0.0075 | 0.0012 ± 0.003 |  | 
UCCUGGAUGUCGAAGGUUAGUAUUUAGUUA |  | 0.000258 ± 0.014 |  | 0.00012 ± 0.036
UCCUGGAUGUGCUUGCAAAGUAUUUAGAUA | 0.00153 ± 0.0046 | 0.00182 ± 0.0047 |  | 
UCCUCCUACAGCUUGCAUAGUAUUUUGAUA | 0.00203 ± 0.0032 | 0.0044 ± 0.0029 |  | 
UCCUGCUAGAGCUUGCAUAGAAUUUAGUUA | 0.00209 ± 0.0029 | 0.0043 ± 0.0014 |  | 
UCCUGGAUGUCGAUCCAUACUAUUUAGUUA | 0.000188 ± 0.032 | 0.000414 ± 0.016 |  | 
UCCUGCUACAGGUUGCAUAGUAUAUAGUUA |  | 0.005 ± 0.0032 |  | 0.305 ± 0.036
UCCUGGAACAGCUUGCAUAGUAUUUUCUAA | 0.00095 ± 0.0061 | 0.00231 ± 0.0025 |  | 
UCCUCCUAUCAGCUUGCAUAGUAUUUAGUUA |  | 0.0677 ± 0.018 |  | 0.322 ± 0.015
UCCUGCUACAGCUUGCAUAGAAUUUAGAUA | 0.00074 ± 0.0091 |  | 0.000504 ± 0.011 | 
UCCUGGUACAGCUUGCAUAGUUUAUAGUUA | 0.00282 ± 0.0033 | 0.00189 ± 0.0035 |  | 
UCCUGGAUGUCGUUGCAUAGUAUAAUCAAA [g8:g18:cont:t1A] | 0.000198 ± 0.031 | 0.000295 ± 0.0094 |  | 
UCCUCCUACAGCUUGCAUAGUAUUUAGUUC [g2:g26:cont:t1C] |  | 0.146 ± 0.035 |  | 0.283 ± 0.016
UCCUGCUGCAGCUUGCAUAGUAUUUAGUUA |  | 0.0729 ± 0.016 |  | 0.331 ± 0.024
UCCUCCUACAGCUUGCAUAGUUUUUUGUUA | 0.00251 ± 0.003 | 0.00441 ± 0.0026 |  | 

Quoted at random: 2 entries already listed.
Sequence | pre-steady-state target cleavage rate [1, 3] | pre-steady-state target cleavage rate [2, 4] | pre-steady-state target cleavage rate [2, 5] | pre-steady-state target cleavage rate [1, 6]
UCCUCCUAUCAGCUUGCAUAGUAUUUAGUUA |  | 0.0677 ± 0.018 |  | 0.322 ± 0.015
UCCUGGAACAGCUUGCAUAGUAUUUUCUAA | 0.00095 ± 0.0061 | 0.00231 ± 0.0025 |  | 
